The text below walks through data of article doi:10.1101/2024.05.04.592404.

The chains behind the UniProt entries cited, without tags or fusion partners.
UniProt P49023: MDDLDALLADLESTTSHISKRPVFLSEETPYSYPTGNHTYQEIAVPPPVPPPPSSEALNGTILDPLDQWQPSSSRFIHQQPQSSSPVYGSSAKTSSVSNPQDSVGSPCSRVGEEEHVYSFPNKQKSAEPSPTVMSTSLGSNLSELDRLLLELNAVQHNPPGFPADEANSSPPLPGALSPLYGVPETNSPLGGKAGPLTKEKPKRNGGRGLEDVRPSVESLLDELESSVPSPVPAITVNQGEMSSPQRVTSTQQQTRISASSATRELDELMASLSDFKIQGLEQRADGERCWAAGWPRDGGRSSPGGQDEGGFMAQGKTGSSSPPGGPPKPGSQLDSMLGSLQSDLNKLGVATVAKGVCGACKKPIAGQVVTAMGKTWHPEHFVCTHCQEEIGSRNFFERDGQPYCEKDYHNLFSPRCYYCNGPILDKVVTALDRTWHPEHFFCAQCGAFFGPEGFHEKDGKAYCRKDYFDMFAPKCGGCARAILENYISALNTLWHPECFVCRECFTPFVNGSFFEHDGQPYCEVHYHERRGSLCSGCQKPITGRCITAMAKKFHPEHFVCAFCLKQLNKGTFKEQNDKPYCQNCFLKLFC
UniProt Q14155: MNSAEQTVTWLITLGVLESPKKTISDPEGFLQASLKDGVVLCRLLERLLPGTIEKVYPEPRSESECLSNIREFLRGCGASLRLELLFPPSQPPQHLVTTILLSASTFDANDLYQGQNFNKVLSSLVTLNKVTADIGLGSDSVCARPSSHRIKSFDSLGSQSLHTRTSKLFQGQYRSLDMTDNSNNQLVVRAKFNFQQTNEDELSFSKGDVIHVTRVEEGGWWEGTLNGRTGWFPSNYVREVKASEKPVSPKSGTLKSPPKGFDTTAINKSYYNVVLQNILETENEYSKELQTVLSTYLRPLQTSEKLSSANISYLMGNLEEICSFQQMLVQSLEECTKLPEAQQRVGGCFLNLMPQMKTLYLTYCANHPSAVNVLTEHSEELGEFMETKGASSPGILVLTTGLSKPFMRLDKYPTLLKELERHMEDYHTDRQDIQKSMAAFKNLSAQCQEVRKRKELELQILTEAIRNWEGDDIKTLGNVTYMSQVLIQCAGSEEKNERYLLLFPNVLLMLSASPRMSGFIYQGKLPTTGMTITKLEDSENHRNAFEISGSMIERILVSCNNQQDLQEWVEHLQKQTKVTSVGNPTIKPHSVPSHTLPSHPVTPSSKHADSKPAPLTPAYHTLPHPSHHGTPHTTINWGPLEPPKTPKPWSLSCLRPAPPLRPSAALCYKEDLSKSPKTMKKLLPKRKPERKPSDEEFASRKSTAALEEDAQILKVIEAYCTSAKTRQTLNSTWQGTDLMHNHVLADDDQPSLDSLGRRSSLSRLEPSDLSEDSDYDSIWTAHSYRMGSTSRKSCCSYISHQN

No constants are given. Whether binding was seen depends on the method and setting. Binding seen in cells or lysates may run through a third protein. A yes stands for co-enrichment or nearness to the bait. Other partners may have been found.

The assay has as its target miniTurbo-paxillin (paxillin fused to a small and fast promiscuous biotin ligase) (human) (UniProt P49023). In words: proximity labelling.

Turning to “ARHGEF7/β-PIX (from UniProt Q14155 1-803)”, the binding entry was “binds”.
